Values from PubChem BioAssay AID1159579 (Peter MacCallum Cancer Centre, 2015)
Aim: 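Retest candidate lymphatic endothelial migration regulators using several independent siRNAs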 (follow-up of hits). Cells: human dermal lymphatic endothelial cells. Knock-down reagent: single siRNA against human genes, 25 nM. Measurement: 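Scratch wound imaging measuring area filled by moving cells plus nuclei number, averaged over two wells and scaled to mock-transfected controls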. Scale: migration relative to mock: higher = more migration into the scratch; mean nuclei count: higher = more cells remaining. Call rule: 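a ratio of at most 0.6 or at least 1.3 marks altered migration and an active call; a mean nuclei count under 3300 forces an inactive call regardless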. Calls: active = migration changed (impaired or accelerated); inactive = no migration change, or too few cells.
In all, the deposit lists about 2,000 reagents; this is a random part of them. Of all reagents, 549 (27%) got an active call. 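Some migration ratios are negative; siRNAs with too few cells are inactive whatever their migration ratio.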 A number with no mark means an inactive call. The numbers tell different reagents against one gene apart. Not given: the time to read-out.

Target gene | reagent | migration relative to mock | migration and cell number class | mean nuclei count
CACNA2D1 | 1 | 0.62 | no change in migration or cell number | 5240
CACNA2D1 | 2 | 0.98 | no change in migration or cell number | 5577
CACNA2D1 | 3 | 1.07 | no change in migration or cell number | 6510
CACNA2D1 | 4 | -0.77 (active) | migration reduced | 3946
SFSWAP (splicing factor SWAP) | 1 | 0.57 (active) | migration reduced | 5041
SFSWAP (splicing factor SWAP) | 2 | 0.72 | no change in migration or cell number | 5254
SFSWAP (splicing factor SWAP) | 3 | 1 | no change in migration or cell number | 5872
SFSWAP (splicing factor SWAP) | 4 | 1.09 | no change in migration or cell number | 6496
TEK (TEK receptor tyrosine kinase) | 1 | 0.12 (active) | migration reduced | 4394
TEK (TEK receptor tyrosine kinase) | 2 | 0.8 | no change in migration or cell number | 5861
TEK (TEK receptor tyrosine kinase) | 3 | 0.67 | no change in migration or cell number | 6052
TEK (TEK receptor tyrosine kinase) | 4 | 0.62 | no change in migration or cell number | 5008
NUCLEOLIN (nucleolin multifunctional protein) | 1 | 0.86 | no change in migration or cell number | 7322
NUCLEOLIN (nucleolin multifunctional protein) | 2 | 1.13 | no change in migration or cell number | 7110
NUCLEOLIN (nucleolin multifunctional protein) | 3 | 0.98 | no change in migration or cell number | 5938
NUCLEOLIN (nucleolin multifunctional protein) | 4 | 1.1 | no change in migration or cell number | 5197

3 of these entries, set out differently:
{"Target gene":"CACNA2D1","reagent":3,"migration relative to mock":1.07,"migration and cell number class":"no change in migration or cell number","mean nuclei count":6510}
{"Target gene":"CACNA2D1","reagent":4,"migration relative to mock":"-0.77 (active)","migration and cell number class":"migration reduced","mean nuclei count":3946}
{"Target gene":"SFSWAP (splicing factor SWAP)","reagent":1,"migration relative to mock":"0.57 (active)","migration and cell number class":"migration reduced","mean nuclei count":5041}

More reagents follow:
Target gene | reagent | migration relative to mock | migration and cell number class | mean nuclei count
IFNE (interferon epsilon) | 1 | 0.68 | no change in migration or cell number | 5462
IFNE (interferon epsilon) | 2 | 0.86 | no change in migration or cell number | 6410
IFNE (interferon epsilon) | 3 | 1.02 | no change in migration or cell number | 4670
IFNE (interferon epsilon) | 4 | 0.82 | no change in migration or cell number | 5014
AXIN1 (axin 1) | 1 | 0.69 | no change in migration or cell number | 5354
AXIN1 (axin 1) | 2 | 1.06 | no change in migration or cell number | 6636
AXIN1 (axin 1) | 3 | 0.96 | no change in migration or cell number | 6740
AXIN1 (axin 1) | 4 | 0.85 | no change in migration or cell number | 5098
KIR2DL4 | 1 | 0.8 | no change in migration or cell number | 3944
KIR2DL4 | 2 | 0.55 (active) | migration reduced | 5024
KIR2DL4 | 3 | 0.76 | no change in migration or cell number | 5734
KIR2DL4 | 4 | 1.02 | no change in migration or cell number | 4998
